# These are yes or no findings as the source states them, for the method shown. Some binding calls cover weakened binding; strength is not graded here. Tags and fused reporters may be left off the sequences shown.
# Protein sequences, listed by entry. Tags and fused reporters are not part of them. Residues count along the entry.
# UniProt O15123, residues 68-496: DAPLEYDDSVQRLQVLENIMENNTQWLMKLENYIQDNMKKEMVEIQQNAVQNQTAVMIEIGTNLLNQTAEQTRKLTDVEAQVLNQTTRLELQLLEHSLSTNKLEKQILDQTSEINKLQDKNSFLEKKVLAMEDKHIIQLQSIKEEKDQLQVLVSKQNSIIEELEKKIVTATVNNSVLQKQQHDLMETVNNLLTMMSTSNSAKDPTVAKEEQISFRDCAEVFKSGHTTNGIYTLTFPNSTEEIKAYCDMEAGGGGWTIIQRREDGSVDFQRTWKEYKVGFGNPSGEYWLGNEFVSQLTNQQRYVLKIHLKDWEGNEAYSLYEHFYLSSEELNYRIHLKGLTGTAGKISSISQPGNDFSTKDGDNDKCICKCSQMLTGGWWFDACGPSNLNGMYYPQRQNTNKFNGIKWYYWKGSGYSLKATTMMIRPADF
# B1: 2×Lm32-MBP fusion (protein, not shown: small tags and cut ends)
# peptide: PGKGGGSMGAQTNFMPMDNDELLLYEQFILQQGLEGGGSMGAQTNFMPMDNDELLLYEQFILQQGLE
# Molecular target: angiopoietin-2 (Ang2) (human) (UniProt O15123)
# Assay: ELISA, rhAng2-coated wells (320 ng/ml), serially diluted osmotic shock fractions of MRD-MBP fusions, HRP anti-MBP mAb, A450; key to the curve numbers on D00010 FIG. 17B
row,Binder,binding
1,"PGSGGGSMGAQTNFMPMDNDELLLYEQFILQQGLE (peptide, not shown: small tags and cut ends) [Lm32 KtoS-MBP fusion]",binds
2,B1,binds
3,"PGKGGGSMGAQTNFMPMNDDEQRLYEQFILQQGLE (peptide, not shown: large carriers; small tags and cut ends) [L1-7D MND]",binds
4,"PGKGGGSMGAQTNFMPMTDDEQRLYEQFILQQGLE (peptide, not shown: large carriers) [L1-7D MTD]",binds
5,"PGKGGGSMGAQTNFMPMGDDEQRLYEQFILQQGLE (peptide, not shown: large carriers; small tags and cut ends) [L1-7D MGD]",binds
6,"PGKGGGSMGAQTNFMPMSDDEQRLYEQFILQQGLE (peptide, not shown: large carriers; small tags and cut ends) [L1-7D MSD]",binds
7,"PGKGGGSMGAQTNFMPMEDDEQRLYEQFILQQGLE (peptide, not shown: large carriers; small tags and cut ends) [L1-7D MED]",binds
8,"PGKGGGSMGAQTNFMPMHDDEQRLYEQFILQQGLE (peptide, not shown: large carriers; small tags and cut ends) [L1-7D MHD]",binds

# Molecular target: angiopoietin-2 (Ang2) (human) (UniProt O15123)
# Assay: ELISA, MRD-MBP fusions on plate-bound rhAng2, anti-MBP detection
row,Binder,binding
1,"PGSGGGSMGAQTNFMPMDNDELLLYEQFILQQGLE (peptide, not shown: small tags and cut ends) [Lm32 KtoS-MBP fusion]",binds

# Reference: US20170298106A1
